Experimental data: patent US20240398920A1 (CYTOMX THERAPEUTICS, published 2024)
These are yes or no findings as the source states them, for the method shown. Some binding calls cover weakened binding; strength is not graded here.

By UniProt entry, the sequences of proteins in these tests, tags left out. Where a name states a change or a piece, a line headed by the entry shows the natural chain unless it says otherwise. Residues count along the entry.
UniProt P50284, residues 31-415: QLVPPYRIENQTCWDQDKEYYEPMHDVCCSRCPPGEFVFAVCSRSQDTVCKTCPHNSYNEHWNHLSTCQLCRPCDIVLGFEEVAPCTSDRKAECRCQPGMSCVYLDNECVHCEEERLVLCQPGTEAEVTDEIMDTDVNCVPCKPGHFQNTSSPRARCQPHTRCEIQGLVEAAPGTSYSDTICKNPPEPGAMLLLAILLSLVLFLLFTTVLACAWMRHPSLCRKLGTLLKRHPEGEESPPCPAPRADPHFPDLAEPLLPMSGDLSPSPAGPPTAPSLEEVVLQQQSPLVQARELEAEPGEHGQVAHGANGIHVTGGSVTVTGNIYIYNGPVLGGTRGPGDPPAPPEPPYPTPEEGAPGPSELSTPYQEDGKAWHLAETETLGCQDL
UniProt P36941, residues 31-435: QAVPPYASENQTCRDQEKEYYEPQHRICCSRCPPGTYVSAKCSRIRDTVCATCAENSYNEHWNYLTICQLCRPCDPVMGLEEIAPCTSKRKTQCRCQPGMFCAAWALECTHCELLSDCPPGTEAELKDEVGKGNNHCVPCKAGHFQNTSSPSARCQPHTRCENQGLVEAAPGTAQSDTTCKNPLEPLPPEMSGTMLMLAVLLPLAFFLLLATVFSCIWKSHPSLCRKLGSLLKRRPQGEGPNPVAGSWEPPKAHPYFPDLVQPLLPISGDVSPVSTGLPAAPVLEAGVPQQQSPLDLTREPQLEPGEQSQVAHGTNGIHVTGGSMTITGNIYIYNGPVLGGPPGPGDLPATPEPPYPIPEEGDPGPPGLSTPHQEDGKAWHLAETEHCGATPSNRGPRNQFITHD
UniProt O43557: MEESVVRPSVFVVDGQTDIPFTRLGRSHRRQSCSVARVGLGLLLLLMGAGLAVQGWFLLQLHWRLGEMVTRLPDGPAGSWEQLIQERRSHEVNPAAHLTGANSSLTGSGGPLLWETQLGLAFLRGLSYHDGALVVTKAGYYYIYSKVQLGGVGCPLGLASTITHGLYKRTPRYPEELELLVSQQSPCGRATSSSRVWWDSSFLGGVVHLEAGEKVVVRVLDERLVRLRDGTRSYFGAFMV

Legend:
[1] = target: mouse lymphotoxin beta receptor (mouse) (UniProt P50284); test: flow cytometry on MC38 cells, detected with PE-conjugated anti-human CD258 (LIGHT) antibody
[2] = target: human lymphotoxin beta receptor (LTbR) (human, UniProt P36941 31-435); test: flow cytometry on A375 cells, detected with PE-conjugated anti-human CD258 (LIGHT) antibody

ProC1486 + uPa (from UniProt O43557 85-240) (ligand)
binding [1]: binds
binding [2]: binds
